These are yes or no findings as the source states them, for the method shown. Some entries that bind do so weakly or less than the wild type. For some assays here: Where a sequence is shown, tags or fusion partners need not be part of it.
T1: ExoU with an N-terminal histidine tag (P. aeruginosa), O34208
T1 chain: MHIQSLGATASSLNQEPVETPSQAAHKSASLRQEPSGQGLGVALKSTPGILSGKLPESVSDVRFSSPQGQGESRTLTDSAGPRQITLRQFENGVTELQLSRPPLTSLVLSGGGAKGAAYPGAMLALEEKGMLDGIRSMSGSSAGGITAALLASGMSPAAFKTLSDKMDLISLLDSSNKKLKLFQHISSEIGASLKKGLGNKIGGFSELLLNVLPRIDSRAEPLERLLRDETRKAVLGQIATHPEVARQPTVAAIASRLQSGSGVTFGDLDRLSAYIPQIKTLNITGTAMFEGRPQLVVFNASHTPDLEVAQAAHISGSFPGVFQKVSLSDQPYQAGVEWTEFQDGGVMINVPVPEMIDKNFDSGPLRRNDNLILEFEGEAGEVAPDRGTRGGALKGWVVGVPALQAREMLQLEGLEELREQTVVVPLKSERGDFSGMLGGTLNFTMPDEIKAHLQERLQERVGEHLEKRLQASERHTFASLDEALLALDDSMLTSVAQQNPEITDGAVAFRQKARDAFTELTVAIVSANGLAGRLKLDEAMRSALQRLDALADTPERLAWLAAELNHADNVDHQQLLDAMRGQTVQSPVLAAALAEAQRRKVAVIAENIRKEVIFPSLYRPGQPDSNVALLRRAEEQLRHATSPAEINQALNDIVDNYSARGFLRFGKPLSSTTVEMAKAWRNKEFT


Key:
[1] = biological target: ExoU with an N-terminal histidine tag (P. aeruginosa) (UniProt O34208); assay: native gel or EMSA
[2] = biological target: T1, ExoU with an N-terminal histidine tag …; assay: native gel or EMSA; conditions: remark: other sources report otherwise

Row | Molecule | binding [1] | binding [2]
1 | ExoU with an N-terminal histidine tag (from UniProt O34208 1-687) (enzyme) | no binding (condition: with compound D) | –
2 | ExoU with an N-terminal histidine tag, O34208 1-687 (enzyme) MHIQSLGATASSLNQEPVETPSQAAHKSASLRQEPSGQGLGVALKSTPGILSGKLPESVSDVRFSSPQGQGESRTLTDSAGPRQITLRQFENGVTELQLSRPPLTSLVLSGGGAKGAAYPGAMLALEEKGMLDGIRSMSGSSAGGITAALLASGMSPAAFKTLSDKMDLISLLDSSNKKLKLFQHISSEIGASLKKGLGNKIGGFSELLLNVLPRIDSRAEPLERLLRDETRKAVLGQIATHPEVARQPTVAAIASRLQSGSGVTFGDLDRLSAYIPQIKTLNITGTAMFEGRPQLVVFNASHTPDLEVAQAAHISGSFPGVFQKVSLSDQPYQAGVEWTEFQDGGVMINVPVPEMIDKNFDSGPLRRNDNLILEFEGEAGEVAPDRGTRGGALKGWVVGVPALQAREMLQLEGLEELREQTVVVPLKSERGDFSGMLGGTLNFTMPDEIKAHLQERLQERVGEHLEKRLQASERHTFASLDEALLALDDSMLTSVAQQNPEITDGAVAFRQKARDAFTELTVAIVSANGLAGRLKLDEAMRSALQRLDALADTPERLAWLAAELNHADNVDHQQLLDAMRGQTVQSPVLAAALAEAQRRKVAVIAENIRKEVIFPSLYRPGQPDSNVALLRRAEEQLRHATSPAEINQALNDIVDNYSARGFLRFGKPLSSTTVEMAKAWRNKEFT | – | binds

Reference: article doi:10.1101/2022.02.21.481271
